Results reported in publication PMC6191125, “Peptidoglycan potentiates the membrane disrupting effect of the carboxyamidated form of DMS-DA6, a Gram-positive selective antimicrobial peptide isolated from Pachymedusa dacnicolor skin” (PLoS ONE, 2018).
Residues, ends and D or L forms follow the SMILES beside them.

Tested on: DMPG LUVs + PGN
Assay: Differential scanning calorimetry with DMPG LUVs + peptidoglycan
Design: species or system Staphylococcus aureus
Conditions: DSC, DMPG LUVs + 0.02% (w/w) PGN

CC[C@H](C)[C@H](NC(=O)CNC(=O)[C@H](Cc1c[nH]c2ccccc12)NC(=O)[C@@H](NC(=O)CN)C(C)C)C(=O)N[C@@H](C)C(=O)N[C@@H](CCCCN)C(=O)N[C@H](C(=O)N[C@@H](C)C(=O)NCC(=O)N[C@@H](CCCCN)C(=O)N[C@H](C(=O)N[C@@H](CC(C)C)C(=O)NCC(=O)N[C@@H](CC(N)=O)C(=O)N[C@H](C(=O)N[C@@H](CC(C)C)C(=O)N1CCC[C@H]1C(=O)N[C@@H](Cc1c[nH]cn1)C(=O)N[C@H](C(=O)N[C@@H](Cc1ccccc1)C(=O)N[C@@H](CO)C(=O)N[C@@H](CO)C(=O)N[C@@H](CC(N)=O)C(=O)N[C@@H](CCC(N)=O)C(=O)N[C@@H](CO)C(N)=O)C(C)C)[C@@H](C)CC)C(C)C)[C@@H](C)CC [DMS-DA6-NH2] (H-GVWGIAKIAGKVLGNILPHVFSSNQS-NH2)
ΔHm1 (peptide to lipid ratio 1/25): 1.58 ± 0.096 kcal/mol
ΔHm2 (peptide to lipid ratio 1/25): 0.884 ± 0.096 kcal/mol
ΔHm1 (peptide to lipid ratio 1/50): 2.53 ± 0.14 kcal/mol
ΔHm2 (peptide to lipid ratio 1/50): 1 ± 0.12 kcal/mol
ΔHm1 (peptide to lipid ratio 1/100): 2.7 ± 0.22 kcal/mol
ΔHm2 (peptide to lipid ratio 1/100): 1.72 ± 0.12 kcal/mol
